Paper PMC10063609, “Discovery of novel cardiac troponin activators using fluorescence polarization-based high throughput screening assays” (Scientific Reports, 2023)

Target: interaction between cTnC and switch peptide of cTnI (cTnISP) (Homo sapiens, UniProt P63316)
Experiment: Fluorescence polarization HTS and dose-response, cTnC/FAM-cTnISP
Type: binding
Conditions: cTnISP primary screen, ENZO Screenwell library, single concentration 50 μmol/L

FP (mP): 87.6 mP
SMILES: Clc1ccc(CSC(Cn2ccnc2)c2ccc(Cl)cc2Cl)cc1 (stereo not shown) [Sulconazole Nitrate]
